Measured values reported in US20100291596A1, “SCREENING METHOD FOR AGENTS SUITABLE FOR THERAPY OF ALZHEIMER'S DISEASE” (FREIE UNIVERSITAT BERLIN, priority 2007, published 2010).
At least one structure is not confirmed: it was looked up by name or label, or the drawing left a doubt.

Chains of the proteins cited; added tags and fusions are not shown. Lines headed by an entry give the natural chain unless they say otherwise; changes in a name come on top.
UniProt P05067: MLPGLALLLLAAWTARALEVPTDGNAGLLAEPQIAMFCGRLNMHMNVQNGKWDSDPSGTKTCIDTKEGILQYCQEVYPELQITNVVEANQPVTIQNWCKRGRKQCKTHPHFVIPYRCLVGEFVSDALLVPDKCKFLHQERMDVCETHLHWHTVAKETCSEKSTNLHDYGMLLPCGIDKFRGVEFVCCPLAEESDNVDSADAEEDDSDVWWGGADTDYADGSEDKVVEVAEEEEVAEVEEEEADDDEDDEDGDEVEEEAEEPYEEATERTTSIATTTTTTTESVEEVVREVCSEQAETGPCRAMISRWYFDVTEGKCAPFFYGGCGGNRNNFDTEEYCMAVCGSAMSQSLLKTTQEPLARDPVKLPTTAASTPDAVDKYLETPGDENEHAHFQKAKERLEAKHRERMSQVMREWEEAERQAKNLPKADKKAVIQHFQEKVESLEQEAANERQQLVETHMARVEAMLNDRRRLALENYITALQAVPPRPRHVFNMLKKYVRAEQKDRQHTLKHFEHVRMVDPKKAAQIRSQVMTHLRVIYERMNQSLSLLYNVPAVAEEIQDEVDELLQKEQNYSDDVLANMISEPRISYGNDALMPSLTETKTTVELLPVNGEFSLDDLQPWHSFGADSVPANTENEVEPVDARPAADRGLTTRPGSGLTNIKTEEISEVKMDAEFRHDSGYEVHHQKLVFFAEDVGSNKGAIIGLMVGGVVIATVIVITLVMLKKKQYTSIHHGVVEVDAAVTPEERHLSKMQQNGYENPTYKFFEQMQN

Assays:
[1] = target: T1, transmembrane sequence Abeta29-42 wt (Homo sapiens, UniProt P05067); assay: ToxR system: dimerization of transmembrane sequence Abeta29-42 wt; type: cell-based
T1 construct: the amino acid residues 29-42 of the Abeta region ([…]); expressed in transfected cells; host or cells: E. coli FHK12
Method: ToxR-system E. coli FHK12 cells were transformed with accordant DNA constructs encoding for ToxR-fusionproteins containing at least a part of the APP transmembrane sequence (e.g. sequence Abeta 29-42). Cells were grown in either FHK medium or minimal medium (e.g. M9 medium) supplemented with NSAIDs and corresponding vehicle controls for 6 h. Then, aliquots of the cells were lysed and beta-galactosidase activity was measured (Langosch et al., 1996).
The second screening step is carried out in order to find compounds selectively modulating only the processing of APP via binding to the transmembrane sequence (TMS) of APP. The APP-GxxxG motif is, inter alia, a perfect target structure for selecting compounds characterized by high affinity binding (Munter et al., EMBO J. 26 (2007), 1702-12). In the bacterial assay system (ToxR system) only the transmembrane sequence of APP containing the amino acid residues 29-42 of the Abeta region (GAIIGLMVGGVVIA) is expressed as part of a fusion protein. […] The rate of transcription correlates with the degree of dimerization and can be determined by measuring the conversion of a coloured substrate. […] After incubation for 2 to 24 h the degree of dimerization is determined. Binding of compounds to the amino acid sequence Abeta 29-42 results in weakening of dimerization and this is determined by measuring the decrease of enzymatic activity. […]

[2] = target: T2, transmembrane sequence Abeta29-42 G29/33A (Homo sapiens, UniProt P05067, G700A/G704A); assay: ToxR system: dimerization of altered transmembrane sequence Abeta29-42 G29/33A; type: cell-based
T2 construct: the amino acid residues 29-42 of the Abeta region (GAIIGLMVGGVVIA); expressed in transfected cells; host or cells: E. coli FHK12

SMILES: CC(C)OC(=O)C(C)(C)Oc1ccc(C(=O)c2ccc(Cl)cc2)cc1 [Fenofibrate]
- Stability of dimerization of the transmembrane sequence [1]: clearly enhances the stability of the dimer
- Stability of dimerization of the transmembrane sequence [2]: comparatively less pronounced
